Structures can show the parent of a compound that is named as a salt. The list shows a part of the results. The calls rarely recur for the same compound in another form.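 Kinases, fused to nanoluciferase, were expressed in K562 cells; luminescence was measured every 4 h from 2 to 18 h as percent of control (DMSO = 100%, positive control = 0%). A time point is decreased if signal falls significantly (2 sigma). Hits were called by the authors by a rule that is not shown; the count of time points alone does not decide it.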
Assays:
Experiment in all cases: kinase-Nluc reporter destabilization hit call (1 = scored as downregulated) (binary); higher = compound decreases kinase abundance
Conditions in all cases: K562; 2-18 h
EGFR = EGFR (UniProt P00533)
EGFR_G719S = EGFR_G719S (UniProt P00533)
EGFR_G719S_T790M = EGFR_G719S_T790M (UniProt P00533)
EGFR_L718V = EGFR_L718V (UniProt P00533)
EGFR_L858R = EGFR_L858R (UniProt P00533)
EGFR_L861Q = EGFR_L861Q (UniProt P00533)
EGFR_T790M = EGFR_T790M (UniProt P00533)
EPHA2 = EPHA2 (UniProt P29317)
ERBB3 = ERBB3 (UniProt P21860)
[1] = molecular target: ERBB4_R711C (clone: ERBB4_mut) (UniProt Q15303)
ERN1 = ERN1 (UniProt O75460)
FGFR1 = FGFR1 (UniProt P11362)
FGFR2 = FGFR2 (UniProt P21802)
FGFR3 = FGFR3 (UniProt P22607)
FGR = FGR (UniProt P09769)
FLT3 = FLT3 (UniProt P36888)
FYN = FYN (UniProt P06241)
GSK3A = GSK3A (UniProt P49840)
HER2 = HER2 (UniProt P04626)
INSRR = INSRR (UniProt P14616)

The chains behind the UniProt entries cited, without tags or fusion partners. Where a name states a change or a piece, a line headed by the entry shows the natural chain unless it says otherwise.
UniProt P29317, whole entry: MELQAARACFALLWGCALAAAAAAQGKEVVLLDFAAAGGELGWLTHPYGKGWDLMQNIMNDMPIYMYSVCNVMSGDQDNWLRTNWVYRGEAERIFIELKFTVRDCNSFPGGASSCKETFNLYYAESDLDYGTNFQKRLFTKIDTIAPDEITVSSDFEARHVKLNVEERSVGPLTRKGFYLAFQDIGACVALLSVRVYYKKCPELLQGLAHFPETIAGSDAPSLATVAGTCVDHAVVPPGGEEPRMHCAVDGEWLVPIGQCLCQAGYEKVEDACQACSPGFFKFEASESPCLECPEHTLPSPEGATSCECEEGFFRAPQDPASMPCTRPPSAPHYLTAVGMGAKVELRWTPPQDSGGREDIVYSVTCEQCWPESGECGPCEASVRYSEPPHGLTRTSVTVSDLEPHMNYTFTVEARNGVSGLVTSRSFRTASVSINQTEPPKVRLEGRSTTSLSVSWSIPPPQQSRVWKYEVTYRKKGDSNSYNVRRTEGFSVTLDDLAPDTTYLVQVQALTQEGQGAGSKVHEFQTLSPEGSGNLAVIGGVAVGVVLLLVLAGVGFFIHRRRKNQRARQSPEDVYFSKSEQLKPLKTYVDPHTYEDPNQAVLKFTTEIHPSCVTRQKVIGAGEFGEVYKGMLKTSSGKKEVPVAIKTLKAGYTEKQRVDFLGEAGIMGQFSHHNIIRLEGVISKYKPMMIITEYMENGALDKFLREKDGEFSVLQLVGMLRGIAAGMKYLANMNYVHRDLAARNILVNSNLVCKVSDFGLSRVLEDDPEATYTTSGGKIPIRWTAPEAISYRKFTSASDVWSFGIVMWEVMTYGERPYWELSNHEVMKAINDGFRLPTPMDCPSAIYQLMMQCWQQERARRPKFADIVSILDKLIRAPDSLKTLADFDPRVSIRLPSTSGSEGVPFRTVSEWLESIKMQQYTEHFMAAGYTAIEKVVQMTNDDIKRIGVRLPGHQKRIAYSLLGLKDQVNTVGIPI
UniProt P21860, whole entry: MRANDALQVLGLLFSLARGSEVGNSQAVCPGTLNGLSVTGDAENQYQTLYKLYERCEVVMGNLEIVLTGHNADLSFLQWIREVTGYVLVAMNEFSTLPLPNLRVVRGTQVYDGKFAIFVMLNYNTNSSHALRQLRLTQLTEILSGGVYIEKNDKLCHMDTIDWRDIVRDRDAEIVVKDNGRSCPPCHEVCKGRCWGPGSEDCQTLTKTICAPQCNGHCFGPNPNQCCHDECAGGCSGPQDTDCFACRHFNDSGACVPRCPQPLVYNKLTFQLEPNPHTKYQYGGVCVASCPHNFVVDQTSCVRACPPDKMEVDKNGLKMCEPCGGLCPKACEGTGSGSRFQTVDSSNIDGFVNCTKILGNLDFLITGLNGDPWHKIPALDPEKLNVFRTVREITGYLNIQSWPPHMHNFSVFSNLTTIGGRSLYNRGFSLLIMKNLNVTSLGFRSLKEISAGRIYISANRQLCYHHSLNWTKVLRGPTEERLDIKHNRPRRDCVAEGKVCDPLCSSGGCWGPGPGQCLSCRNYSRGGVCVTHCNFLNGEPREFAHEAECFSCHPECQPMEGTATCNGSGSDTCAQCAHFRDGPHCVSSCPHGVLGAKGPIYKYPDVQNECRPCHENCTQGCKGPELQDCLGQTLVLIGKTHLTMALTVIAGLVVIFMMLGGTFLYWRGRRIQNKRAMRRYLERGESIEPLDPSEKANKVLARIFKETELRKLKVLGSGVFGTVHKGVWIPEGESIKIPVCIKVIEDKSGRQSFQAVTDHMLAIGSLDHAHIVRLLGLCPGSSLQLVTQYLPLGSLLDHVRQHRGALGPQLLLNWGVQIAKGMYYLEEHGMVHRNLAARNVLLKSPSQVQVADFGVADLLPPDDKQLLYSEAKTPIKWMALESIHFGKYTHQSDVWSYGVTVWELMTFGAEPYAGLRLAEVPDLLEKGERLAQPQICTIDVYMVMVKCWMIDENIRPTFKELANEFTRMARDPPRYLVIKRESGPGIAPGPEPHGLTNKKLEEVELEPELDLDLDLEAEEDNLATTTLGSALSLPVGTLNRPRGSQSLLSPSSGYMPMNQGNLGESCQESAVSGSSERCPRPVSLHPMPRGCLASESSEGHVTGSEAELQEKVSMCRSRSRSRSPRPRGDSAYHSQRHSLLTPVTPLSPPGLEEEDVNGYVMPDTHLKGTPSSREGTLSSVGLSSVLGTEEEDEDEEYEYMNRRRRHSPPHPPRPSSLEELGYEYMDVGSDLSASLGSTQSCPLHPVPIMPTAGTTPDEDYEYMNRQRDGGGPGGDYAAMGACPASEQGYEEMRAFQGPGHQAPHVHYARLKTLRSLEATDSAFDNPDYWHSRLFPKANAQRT
UniProt Q15303, whole entry R711C: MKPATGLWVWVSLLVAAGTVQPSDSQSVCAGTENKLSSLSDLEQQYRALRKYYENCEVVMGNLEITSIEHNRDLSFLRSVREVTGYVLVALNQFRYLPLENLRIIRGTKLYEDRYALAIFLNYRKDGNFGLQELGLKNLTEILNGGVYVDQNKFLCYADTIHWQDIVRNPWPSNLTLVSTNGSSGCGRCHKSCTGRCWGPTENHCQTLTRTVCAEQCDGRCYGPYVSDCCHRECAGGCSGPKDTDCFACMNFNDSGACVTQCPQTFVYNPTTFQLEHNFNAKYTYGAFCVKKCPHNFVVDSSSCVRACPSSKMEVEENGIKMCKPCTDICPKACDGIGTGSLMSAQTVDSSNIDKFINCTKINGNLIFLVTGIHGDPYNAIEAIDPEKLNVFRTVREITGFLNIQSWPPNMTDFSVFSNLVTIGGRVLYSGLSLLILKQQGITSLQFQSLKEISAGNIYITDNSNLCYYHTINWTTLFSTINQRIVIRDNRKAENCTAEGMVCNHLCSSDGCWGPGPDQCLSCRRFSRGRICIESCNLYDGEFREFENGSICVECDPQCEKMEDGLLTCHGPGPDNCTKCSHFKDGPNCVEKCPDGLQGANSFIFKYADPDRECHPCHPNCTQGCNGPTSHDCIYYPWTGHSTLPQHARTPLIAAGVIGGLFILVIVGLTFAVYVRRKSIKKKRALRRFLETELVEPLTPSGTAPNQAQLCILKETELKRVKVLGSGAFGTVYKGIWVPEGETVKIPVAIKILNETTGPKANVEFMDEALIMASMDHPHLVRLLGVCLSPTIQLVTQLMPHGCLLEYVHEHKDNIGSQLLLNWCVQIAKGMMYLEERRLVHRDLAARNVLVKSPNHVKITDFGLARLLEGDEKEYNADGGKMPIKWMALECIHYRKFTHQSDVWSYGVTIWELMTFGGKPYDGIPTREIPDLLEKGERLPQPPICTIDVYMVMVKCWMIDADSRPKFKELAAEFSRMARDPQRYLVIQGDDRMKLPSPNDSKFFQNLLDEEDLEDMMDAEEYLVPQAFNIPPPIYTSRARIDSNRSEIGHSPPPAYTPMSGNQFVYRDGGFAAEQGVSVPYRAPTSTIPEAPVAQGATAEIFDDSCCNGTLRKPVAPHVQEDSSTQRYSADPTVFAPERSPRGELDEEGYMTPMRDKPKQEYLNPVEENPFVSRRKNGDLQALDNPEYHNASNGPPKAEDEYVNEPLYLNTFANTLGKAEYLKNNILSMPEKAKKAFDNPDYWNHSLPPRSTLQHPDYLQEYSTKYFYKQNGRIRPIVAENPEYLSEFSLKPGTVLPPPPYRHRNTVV
UniProt O75460: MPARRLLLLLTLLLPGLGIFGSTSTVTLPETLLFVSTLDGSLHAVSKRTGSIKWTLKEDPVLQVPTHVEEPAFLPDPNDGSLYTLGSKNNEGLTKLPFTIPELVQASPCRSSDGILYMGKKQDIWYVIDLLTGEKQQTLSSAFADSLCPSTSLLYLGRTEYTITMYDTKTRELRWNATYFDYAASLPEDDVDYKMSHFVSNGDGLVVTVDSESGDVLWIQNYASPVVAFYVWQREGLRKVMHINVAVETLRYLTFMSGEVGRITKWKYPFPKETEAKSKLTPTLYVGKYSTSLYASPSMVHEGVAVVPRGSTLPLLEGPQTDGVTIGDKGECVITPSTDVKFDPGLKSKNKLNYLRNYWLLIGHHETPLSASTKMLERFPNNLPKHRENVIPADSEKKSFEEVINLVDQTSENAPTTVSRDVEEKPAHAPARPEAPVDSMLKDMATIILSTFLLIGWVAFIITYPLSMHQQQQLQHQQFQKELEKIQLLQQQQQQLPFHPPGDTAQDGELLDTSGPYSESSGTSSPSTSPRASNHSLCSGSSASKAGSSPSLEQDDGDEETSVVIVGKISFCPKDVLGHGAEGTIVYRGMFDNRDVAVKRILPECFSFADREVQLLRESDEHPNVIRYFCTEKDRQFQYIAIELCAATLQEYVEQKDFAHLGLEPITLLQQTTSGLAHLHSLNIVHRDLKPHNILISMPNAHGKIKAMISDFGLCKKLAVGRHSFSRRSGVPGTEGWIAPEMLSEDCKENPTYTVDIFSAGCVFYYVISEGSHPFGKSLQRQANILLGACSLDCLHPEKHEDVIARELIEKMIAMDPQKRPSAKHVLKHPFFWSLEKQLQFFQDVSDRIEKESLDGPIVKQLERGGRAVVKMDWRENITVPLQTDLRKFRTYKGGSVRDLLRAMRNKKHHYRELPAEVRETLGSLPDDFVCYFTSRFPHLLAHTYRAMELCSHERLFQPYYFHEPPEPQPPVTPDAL
UniProt P36888, whole entry: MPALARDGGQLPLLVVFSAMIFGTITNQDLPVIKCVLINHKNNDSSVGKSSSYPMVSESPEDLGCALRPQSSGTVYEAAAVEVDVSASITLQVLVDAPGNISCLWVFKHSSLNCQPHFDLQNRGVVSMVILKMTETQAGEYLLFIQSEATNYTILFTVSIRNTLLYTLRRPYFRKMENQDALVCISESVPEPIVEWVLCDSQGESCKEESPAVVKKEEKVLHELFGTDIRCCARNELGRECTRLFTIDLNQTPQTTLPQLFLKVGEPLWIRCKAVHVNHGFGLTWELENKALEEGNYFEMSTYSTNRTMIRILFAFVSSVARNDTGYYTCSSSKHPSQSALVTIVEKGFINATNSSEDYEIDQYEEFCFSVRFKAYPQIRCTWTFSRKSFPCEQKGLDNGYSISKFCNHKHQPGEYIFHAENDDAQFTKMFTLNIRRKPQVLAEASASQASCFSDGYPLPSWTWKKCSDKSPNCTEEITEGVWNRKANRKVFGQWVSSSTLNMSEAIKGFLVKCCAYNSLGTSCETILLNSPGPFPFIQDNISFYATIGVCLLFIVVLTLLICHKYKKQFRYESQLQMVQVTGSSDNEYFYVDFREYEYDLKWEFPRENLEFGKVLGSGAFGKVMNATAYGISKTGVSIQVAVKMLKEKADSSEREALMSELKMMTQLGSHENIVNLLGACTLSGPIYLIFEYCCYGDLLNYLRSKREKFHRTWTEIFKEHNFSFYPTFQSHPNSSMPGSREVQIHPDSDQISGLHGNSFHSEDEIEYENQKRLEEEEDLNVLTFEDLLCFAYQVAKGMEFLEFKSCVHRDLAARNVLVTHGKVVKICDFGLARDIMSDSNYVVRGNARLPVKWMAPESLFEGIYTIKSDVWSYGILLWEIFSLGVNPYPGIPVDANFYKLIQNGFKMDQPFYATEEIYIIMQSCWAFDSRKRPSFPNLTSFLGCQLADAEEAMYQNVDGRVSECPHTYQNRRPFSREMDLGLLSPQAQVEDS
UniProt P49840: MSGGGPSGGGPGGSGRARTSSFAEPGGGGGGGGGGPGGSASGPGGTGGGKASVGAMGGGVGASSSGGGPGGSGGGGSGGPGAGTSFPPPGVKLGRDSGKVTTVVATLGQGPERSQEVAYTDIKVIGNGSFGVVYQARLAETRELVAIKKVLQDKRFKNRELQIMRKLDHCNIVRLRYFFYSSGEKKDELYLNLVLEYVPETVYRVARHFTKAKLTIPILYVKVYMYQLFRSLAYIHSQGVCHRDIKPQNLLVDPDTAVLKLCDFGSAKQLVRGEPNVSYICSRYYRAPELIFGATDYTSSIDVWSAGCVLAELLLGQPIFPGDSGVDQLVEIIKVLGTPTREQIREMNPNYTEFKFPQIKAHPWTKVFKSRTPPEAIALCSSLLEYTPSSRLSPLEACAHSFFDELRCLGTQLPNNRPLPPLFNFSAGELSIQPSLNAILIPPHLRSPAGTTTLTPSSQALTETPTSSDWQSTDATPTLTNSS

Measured: kinase-Nluc reporter destabilization hit call

COc1ccc(-c2coc3cc(O)ccc3c2=O)cc1 [Formononetin] (10 µM)
inactive: EGFR 0 | EGFR_G719S 0 | EGFR_G719S_T790M 0 | EGFR_L718V 0 | EGFR_L858R 0 | EGFR_L861Q 0 | EGFR_T790M 0 | EPHA2 = 0 | ERBB3 = 0 | [1] 0 | ERN1 = 0 | FGFR1 = 0 | FGFR2 = 0 | FGFR3 = 0 | FGR 0 | FLT3 = 0 | FYN 0 | GSK3A 0 | HER2 = 0 | INSRR 0

C=CC(=O)N1C[C@H](COc2nc(Nc3cnn(C)c3)nc3[nH]cc(Cl)c23)[C@@H](OC)C1 (2.5 µM)
inactive: EGFR 0 | EGFR_G719S 0 | EGFR_G719S_T790M 0 | EGFR_L718V 0 | EGFR_L858R 0 | EGFR_L861Q 0 | EGFR_T790M 0 | EPHA2 = 0 | ERBB3 = 0 | [1] 0 | ERN1 = 0 | FGFR1 = 0 | FGFR2 = 0 | FGFR3 = 0 | FGR 0 | FLT3 = 0 | FYN 0 | GSK3A 0 | HER2 = 0 | INSRR 0

O=[N+]([O-])c1ccc(Nc2nc(N3CCOCC3)nc(N3CCOCC3)n2)cc1 (10 µM)
inactive: EGFR 0 | EGFR_G719S 0 | EGFR_G719S_T790M 0 | EGFR_L718V 0 | EGFR_L858R 0 | EGFR_L861Q 0 | EGFR_T790M 0 | EPHA2 = 0 | ERBB3 = 0 | [1] 0 | ERN1 = 0 | FGFR1 = 0 | FGFR2 = 0 | FGFR3 = 0 | FGR 0 | FLT3 = 0 | FYN 0 | GSK3A 0 | HER2 = 0 | INSRR 0

Oc1ccc(/C=C/c2cc(O)cc(F)c2)cc1 [Resveratrol analog 1] (10 µM)
inactive: EGFR 0 | EGFR_G719S 0 | EGFR_G719S_T790M 0 | EGFR_L718V 0 | EGFR_L858R 0 | EGFR_L861Q 0 | EGFR_T790M 0 | EPHA2 = 0 | ERBB3 = 0 | [1] 0 | ERN1 = 0 | FGFR1 = 0 | FGFR2 = 0 | FGFR3 = 0 | FGR 0 | FLT3 = 0 | FYN 0 | GSK3A 0 | HER2 = 0 | INSRR 0

C=CC(=O)Nc1cccc(-c2cccc3cnc(Nc4ccc(N5CCN(CCO)CC5)c(F)c4F)nc23)c1 [Olafertinib] (2.5 µM)
inactive: EGFR 0 | EGFR_G719S 0 | EGFR_G719S_T790M 0 | EGFR_L718V 0 | EGFR_L858R 0 | EGFR_L861Q 0 | EGFR_T790M 0 | EPHA2 = 0 | ERBB3 = 0 | [1] 0 | ERN1 = 0 | FGFR1 = 0 | FGFR2 = 0 | FGFR3 = 0 | FGR 0 | FLT3 = 0 | FYN 0 | GSK3A 0 | HER2 = 0 | INSRR 0

CC1(C)Cc2c(sc(NC(=S)NC(=O)c3ccccc3)c2C(=O)O)CO1 (10 µM)
inactive: EGFR 0 | EGFR_G719S 0 | EGFR_G719S_T790M 0 | EGFR_L718V 0 | EGFR_L858R 0 | EGFR_L861Q 0 | EGFR_T790M 0 | EPHA2 = 0 | ERBB3 = 0 | [1] 0 | ERN1 = 0 | FGFR1 = 0 | FGFR2 = 0 | FGFR3 = 0 | FGR 0 | FLT3 = 0 | FYN 0 | GSK3A 0 | HER2 = 0 | INSRR 0

Cc1ccc(Oc2nc3cc(-c4ccc(-c5ccccc5)cc4)c(Cl)cc3[nH]2)cc1C(=O)O (10 µM)
inactive: EGFR 0 | EGFR_G719S 0 | EGFR_G719S_T790M 0 | EGFR_L718V 0 | EGFR_L858R 0 | EGFR_L861Q 0 | EGFR_T790M 0 | EPHA2 = 0 | ERBB3 = 0 | [1] 0 | ERN1 = 0 | FGFR1 = 0 | FGFR2 = 0 | FGFR3 = 0 | FGR 0 | FLT3 = 0 | FYN 0 | GSK3A 0 | HER2 = 0 | INSRR 0

COc1cc(N2CCOCC2)ccc1NC(=O)c1csc(-c2cccnc2)n1 [IRAK inhibitor 6] (10 µM)
inactive: EGFR 0 | EGFR_G719S 0 | EGFR_G719S_T790M 0 | EGFR_L718V 0 | EGFR_L858R 0 | EGFR_L861Q 0 | EGFR_T790M 0 | EPHA2 = 0 | ERBB3 = 0 | [1] 0 | ERN1 = 0 | FGFR1 = 0 | FGFR2 = 0 | FGFR3 = 0 | FGR 0 | FLT3 = 0 | FYN 0 | GSK3A 0 | HER2 = 0 | INSRR 0

Cn1cc(-c2cnc3cnn(S(=O)(=O)c4cnc5ccc(-c6cnn(C)c6)cn45)c3c2)cn1 [Glumetinib] (10 µM)
inactive: EGFR 0 | EGFR_G719S 0 | EGFR_G719S_T790M 0 | EGFR_L718V 0 | EGFR_L858R 0 | EGFR_L861Q 0 | EGFR_T790M 0 | EPHA2 = 0 | ERBB3 = 0 | [1] 0 | ERN1 = 0 | FGFR1 = 0 | FGFR2 = 0 | FGFR3 = 0 | FGR 0 | FLT3 = 0 | FYN 0 | GSK3A 0 | HER2 = 0 | INSRR 0

CNc1nc(Nc2ccc(C(=O)N3CCOCC3)cc2OC)ncc1Cl (2.5 µM)
inactive: EGFR 0 | EGFR_G719S 0 | EGFR_G719S_T790M 0 | EGFR_L718V 0 | EGFR_L858R 0 | EGFR_L861Q 0 | EGFR_T790M 0 | EPHA2 = 0 | ERBB3 = 0 | [1] 0 | ERN1 = 0 | FGFR1 = 0 | FGFR2 = 0 | FGFR3 = 0 | FGR 0 | FLT3 = 0 | FYN 0 | GSK3A 0 | HER2 = 0 | INSRR 0

O=C1/C(=C\c2ccc(Cl)cc2)C=C(c2ccccc2)N1c1ccc(O)cc1 (2.5 µM)
inactive: EGFR 0 | EGFR_G719S 0 | EGFR_G719S_T790M 0 | EGFR_L718V 0 | EGFR_L858R 0 | EGFR_L861Q 0 | EGFR_T790M 0 | EPHA2 = 0 | ERBB3 = 0 | [1] 0 | ERN1 = 0 | FGFR1 = 0 | FGFR2 = 0 | FGFR3 = 0 | FGR 0 | FLT3 = 0 | FYN 0 | GSK3A 0 | HER2 = 0 | INSRR 0

Cc1cc(Nc2nc(CC3(C(=O)O)CCN(C(=O)c4cccc(Cl)c4Cl)CC3)ccc2F)n[nH]1 (10 µM)
inactive: EGFR 0 | EGFR_G719S 0 | EGFR_G719S_T790M 0 | EGFR_L718V 0 | EGFR_L858R 0 | EGFR_L861Q 0 | EGFR_T790M 0 | EPHA2 = 0 | ERBB3 = 0 | [1] 0 | ERN1 = 0 | FGFR1 = 0 | FGFR2 = 0 | FGFR3 = 0 | FGR 0 | FLT3 = 0 | FYN 0 | GSK3A 0 | HER2 = 0 | INSRR 0

COc1ccc(S(=O)(=O)NCc2ccc(C(=O)NCCc3ccc(Cl)cn3)cc2)cc1 (10 µM)
inactive: EGFR 0 | EGFR_G719S 0 | EGFR_G719S_T790M 0 | EGFR_L718V 0 | EGFR_L858R 0 | EGFR_L861Q 0 | EGFR_T790M 0 | EPHA2 = 0 | ERBB3 = 0 | [1] 0 | ERN1 = 0 | FGFR1 = 0 | FGFR2 = 0 | FGFR3 = 0 | FGR 0 | FLT3 = 0 | FYN 0 | GSK3A 0 | HER2 = 0 | INSRR 0

C[C@H](Nc1ncnc2nc[nH]c12)c1cc2cccc(Cl)c2c(=O)n1-c1ccccc1 [Duvelisib] (10 µM)
inactive: EGFR 0 | EGFR_G719S 0 | EGFR_G719S_T790M 0 | EGFR_L718V 0 | EGFR_L858R 0 | EGFR_L861Q 0 | EGFR_T790M 0 | EPHA2 = 0 | ERBB3 = 0 | [1] 0 | ERN1 = 0 | FGFR1 = 0 | FGFR2 = 0 | FGFR3 = 0 | FGR 0 | FLT3 = 0 | FYN 0 | GSK3A 0 | HER2 = 0 | INSRR 0

Cn1cnc([N+](=O)[O-])c1C[N+](C)(C)C/C=C/C(=O)Nc1cc2c(Nc3ccc(Cl)c(Br)c3)ncnc2cn1 [Tarloxotinib (bromide)] (10 µM)
inactive: EGFR 0 | EGFR_G719S 0 | EGFR_G719S_T790M 0 | EGFR_L718V 0 | EGFR_L858R 0 | EGFR_L861Q 0 | EGFR_T790M 0 | EPHA2 = 0 | ERBB3 = 0 | [1] 0 | ERN1 = 0 | FGFR1 = 0 | FGFR2 = 0 | FGFR3 = 0 | FGR 0 | FLT3 = 0 | FYN 0 | GSK3A 0 | HER2 = 0 | INSRR 0

An excerpt from above in order of length of the SMILES, smallest number first.
COc1ccc(-c2coc3cc(O)ccc3c2=O)cc1 [Formononetin] (10 µM)
inactive: EGFR 0 | EGFR_G719S 0 | EGFR_G719S_T790M 0 | EGFR_L718V 0 | EGFR_L858R 0 | EGFR_L861Q 0 | EGFR_T790M 0 | EPHA2 = 0 | ERBB3 = 0 | [1] 0 | ERN1 = 0 | FGFR1 = 0 | FGFR2 = 0 | FGFR3 = 0 | FGR 0 | FLT3 = 0 | FYN 0 | GSK3A 0 | HER2 = 0 | INSRR 0

C[C@H](Nc1ncnc2nc[nH]c12)c1cc2cccc(Cl)c2c(=O)n1-c1ccccc1 [Duvelisib] (10 µM)
inactive: EGFR 0 | EGFR_G719S 0 | EGFR_G719S_T790M 0 | EGFR_L718V 0 | EGFR_L858R 0 | EGFR_L861Q 0 | EGFR_T790M 0 | EPHA2 = 0 | ERBB3 = 0 | [1] 0 | ERN1 = 0 | FGFR1 = 0 | FGFR2 = 0 | FGFR3 = 0 | FGR 0 | FLT3 = 0 | FYN 0 | GSK3A 0 | HER2 = 0 | INSRR 0

Cn1cnc([N+](=O)[O-])c1C[N+](C)(C)C/C=C/C(=O)Nc1cc2c(Nc3ccc(Cl)c(Br)c3)ncnc2cn1 [Tarloxotinib (bromide)] (10 µM)
inactive: EGFR 0 | EGFR_G719S 0 | EGFR_G719S_T790M 0 | EGFR_L718V 0 | EGFR_L858R 0 | EGFR_L861Q 0 | EGFR_T790M 0 | EPHA2 = 0 | ERBB3 = 0 | [1] 0 | ERN1 = 0 | FGFR1 = 0 | FGFR2 = 0 | FGFR3 = 0 | FGR 0 | FLT3 = 0 | FYN 0 | GSK3A 0 | HER2 = 0 | INSRR 0

The listing continues.

Nc1cccc(-c2cc3c(Oc4cccc(O)c4)ncnc3[nH]2)c1 (10 µM)
inactive: EGFR 0 | EGFR_G719S 0 | EGFR_G719S_T790M 0 | EGFR_L718V 0 | EGFR_L858R 0 | EGFR_L861Q 0 | EGFR_T790M 0 | EPHA2 = 0 | ERBB3 = 0 | [1] 0 | ERN1 = 0 | FGFR1 = 0 | FGFR3 = 0 | FGR 0 | FLT3 = 0 | FYN 0 | GSK3A 0 | HER2 = 0 | INSRR 0
active: FGFR2 = 1

CC/C(=N\NC(=O)c1ccnc(NCCCN2CCOCC2)c1)c1ccc(Cl)cc1O (2.5 µM)
inactive: EGFR 0 | EGFR_G719S 0 | EGFR_G719S_T790M 0 | EGFR_L718V 0 | EGFR_L858R 0 | EGFR_L861Q 0 | EGFR_T790M 0 | EPHA2 = 0 | ERBB3 = 0 | [1] 0 | ERN1 = 0 | FGFR1 = 0 | FGFR2 = 0 | FGFR3 = 0 | FGR 0 | FLT3 = 0 | FYN 0 | GSK3A 0 | HER2 = 0 | INSRR 0

Cc1nc(-c2cnn(C)c2)nc2c1[nH]c1ncc(-c3ccc(N4CCN(C)CC4)cc3)cc12 [GNE 220 (hydrochloride)] (10 µM)
inactive: EGFR 0 | EGFR_G719S 0 | EGFR_G719S_T790M 0 | EGFR_L718V 0 | EGFR_L858R 0 | EGFR_L861Q 0 | EGFR_T790M 0 | EPHA2 = 0 | ERBB3 = 0 | [1] 0 | ERN1 = 0 | FGFR1 = 0 | FGFR2 = 0 | FGFR3 = 0 | FGR 0 | FLT3 = 0 | FYN 0 | GSK3A 0 | HER2 = 0 | INSRR 0

From the supplement of paper PMC12823440, “Inhibitors supercharge kinase turnover through native proteolytic circuits” (Nature, 2025)
